# Measured values from EP0060954A1, “Derivatives of fluorophenacyl amines and their therapeutic use” (LABORATOIRE L. LAFON Société anonyme dite:, priority 1981, dated 1982).
# Assays:
# chiens [1] = experiment: Cardiovascular action, intraduodenal route in dogs; format: in vivo, chien; details: dog
# Method: Trois chiens reçoivent le CRL 40727 par voie intraduodénale aux doses successives de 1 mg/kg, 2,5 mg/kg, 5 mg/kg et 10 mg/kg. On mesure les mêmes paramètres que ci-dessus. On observe ce qui suit.
# chiens [2] = experiment: Cardiovascular action, intravenous perfusion in dogs; format: in vivo, chien
# Method: Deux chiens reçoivent le CRL 40727 par voie intraveineuse, en perfusion de 6 min, aux doses successives de 0,1 mg/kg, 1 mg/kg, 2,5 mg/kg, 5 mg/kg, 10 mg/kg et 20 mg/kg. On messure leur pression artérielle, leur fréquence cardiaque, leur débit fémoral, leur température rectale.
smiles,measurement,setting,value
"CC(C)NCC(=O)c1ccc(F)cc1 [CRL 40727, chlorhydratede N-(4-fluorophénacyl)-isopropylamine]",dose from which la peau rosit très légèrement,chiens [1],"2,5 mg/kg"
same,liquide biliaire (couleur),chiens [1],reste jaune
same,température rectale,chiens [1],n'est pas modifiée
same,liquide biliaire (couleur),"chiens [2]; cumulated dose 38,5 mg/kg I.V.",reste jaune
same,température rectale,"chiens [2]; dog, i.v.",n'est pas modifiée
same,liquide biliaire (couleur),"chiens [2]; dog, i.v., doses 0,1 to 20 mg/kg",reste jaune
same,liquide biliaire (couleur),"chiens [2]; one dog, supplementary dose of 40 mg/kg I.V.",restant jaune
